Test results taken from article PMC12520681.
No constants are given. Whether binding was seen depends on the method and setting. Binding seen in cells or lysates may run through a third protein. Some entries that bind do so weakly or less than the wild type.

Amino acid sequences for entries named in this document (tags omitted).
UniProt Q9P258: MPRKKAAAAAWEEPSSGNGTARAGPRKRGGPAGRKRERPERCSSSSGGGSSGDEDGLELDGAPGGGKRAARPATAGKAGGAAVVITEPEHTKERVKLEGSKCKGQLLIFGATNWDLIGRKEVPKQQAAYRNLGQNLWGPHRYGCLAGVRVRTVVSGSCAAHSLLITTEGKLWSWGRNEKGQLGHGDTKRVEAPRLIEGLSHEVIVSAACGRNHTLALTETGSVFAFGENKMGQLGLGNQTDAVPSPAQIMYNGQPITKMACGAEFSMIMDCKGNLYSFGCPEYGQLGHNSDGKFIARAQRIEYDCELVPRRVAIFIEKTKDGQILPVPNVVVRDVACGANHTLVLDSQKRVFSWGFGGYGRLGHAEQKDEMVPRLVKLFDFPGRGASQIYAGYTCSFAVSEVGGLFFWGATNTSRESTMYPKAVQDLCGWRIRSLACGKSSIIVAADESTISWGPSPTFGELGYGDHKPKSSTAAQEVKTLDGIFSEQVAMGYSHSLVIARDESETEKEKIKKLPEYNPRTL
UniProt P08670: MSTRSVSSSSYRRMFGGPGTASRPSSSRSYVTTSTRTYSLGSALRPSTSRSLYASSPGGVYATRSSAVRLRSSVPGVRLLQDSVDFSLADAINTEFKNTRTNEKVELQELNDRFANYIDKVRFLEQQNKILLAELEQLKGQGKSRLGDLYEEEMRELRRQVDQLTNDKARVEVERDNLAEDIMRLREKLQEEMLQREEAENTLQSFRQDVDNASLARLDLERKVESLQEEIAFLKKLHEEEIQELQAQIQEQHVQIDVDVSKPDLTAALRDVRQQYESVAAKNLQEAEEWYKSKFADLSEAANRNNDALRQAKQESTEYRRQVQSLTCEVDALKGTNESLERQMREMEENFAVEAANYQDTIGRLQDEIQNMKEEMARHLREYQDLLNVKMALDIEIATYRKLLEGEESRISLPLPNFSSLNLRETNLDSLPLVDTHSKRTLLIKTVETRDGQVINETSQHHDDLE

How the values were obtained:
CD24 (human) = target: T1, CD24 (human) (UniProt P25063); assay: co-IP; HEK293T cells transiently coexpressing CD24 and RCC2; reciprocal IP with anti-CD24 and anti-RCC2 antibodies, protein A/G agarose beads
T1 sequence: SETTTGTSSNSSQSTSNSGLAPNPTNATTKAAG

[1] = target: Regulator of Chromosome Condensation 2 (human (endogenous in DU145)) (UniProt Q9P258); assay: co-IP; endogenous proteins in DU145 cells; IP with either anti-RCC2 or anti-vimentin antibodies, protein A/G agarose beads

Row | Substance | binding (CD24 (human)) | binding [1]
1 | Regulator of Chromosome Condensation 2 (from UniProt Q9P258 1-522) | binds | –
2 | Vimentin (from UniProt P08670 1-466) | – | binds
